No constants are given. Whether binding was seen depends on the method and setting. In cells and extracts the contact can be indirect. A yes stands for co-enrichment or nearness to the bait. Other partners may have been found.
What was measured:
[1] = biological target: T1, BioID2(Gly40Ser)-SEC22A (human) (UniProt Q96IW7); assay: proximity labelling
T1 sequence: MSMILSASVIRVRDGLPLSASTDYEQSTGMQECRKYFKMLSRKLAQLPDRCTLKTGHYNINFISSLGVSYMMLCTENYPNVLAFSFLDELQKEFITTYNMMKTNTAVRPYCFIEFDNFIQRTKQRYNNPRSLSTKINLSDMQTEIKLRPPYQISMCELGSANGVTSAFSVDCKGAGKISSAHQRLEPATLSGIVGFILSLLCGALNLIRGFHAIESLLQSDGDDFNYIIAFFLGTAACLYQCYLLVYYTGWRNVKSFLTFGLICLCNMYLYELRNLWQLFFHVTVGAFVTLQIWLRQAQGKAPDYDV

By UniProt entry, the sequences of proteins in these tests, tags left out.
UniProt Q9NP72: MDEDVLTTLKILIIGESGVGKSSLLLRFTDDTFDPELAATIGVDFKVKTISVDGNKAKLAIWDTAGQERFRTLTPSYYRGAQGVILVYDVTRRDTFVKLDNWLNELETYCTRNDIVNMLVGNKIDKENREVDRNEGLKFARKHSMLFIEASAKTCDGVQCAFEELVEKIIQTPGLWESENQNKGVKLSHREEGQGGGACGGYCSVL
UniProt Q8TD16: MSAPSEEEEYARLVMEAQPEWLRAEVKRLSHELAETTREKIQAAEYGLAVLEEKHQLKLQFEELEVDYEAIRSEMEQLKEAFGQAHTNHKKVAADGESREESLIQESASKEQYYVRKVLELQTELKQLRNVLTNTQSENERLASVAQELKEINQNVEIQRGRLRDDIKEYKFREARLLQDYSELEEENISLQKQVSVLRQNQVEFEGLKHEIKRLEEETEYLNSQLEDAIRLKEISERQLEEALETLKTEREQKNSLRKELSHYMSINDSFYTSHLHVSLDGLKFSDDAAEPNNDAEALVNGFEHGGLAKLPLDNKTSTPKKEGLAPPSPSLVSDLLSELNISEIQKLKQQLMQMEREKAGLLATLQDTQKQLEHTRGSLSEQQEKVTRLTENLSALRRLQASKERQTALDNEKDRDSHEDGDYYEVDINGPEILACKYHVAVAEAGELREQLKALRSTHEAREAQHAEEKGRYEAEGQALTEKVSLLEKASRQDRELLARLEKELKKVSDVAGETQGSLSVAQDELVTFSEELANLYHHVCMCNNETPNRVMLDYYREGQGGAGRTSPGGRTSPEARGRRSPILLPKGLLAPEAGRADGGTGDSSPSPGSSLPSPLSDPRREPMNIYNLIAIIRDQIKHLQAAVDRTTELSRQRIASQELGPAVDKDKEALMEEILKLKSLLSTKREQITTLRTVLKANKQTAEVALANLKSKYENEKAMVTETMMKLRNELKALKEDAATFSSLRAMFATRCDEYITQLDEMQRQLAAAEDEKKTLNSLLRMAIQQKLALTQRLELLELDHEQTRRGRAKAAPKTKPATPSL
UniProt Q5T5Y3: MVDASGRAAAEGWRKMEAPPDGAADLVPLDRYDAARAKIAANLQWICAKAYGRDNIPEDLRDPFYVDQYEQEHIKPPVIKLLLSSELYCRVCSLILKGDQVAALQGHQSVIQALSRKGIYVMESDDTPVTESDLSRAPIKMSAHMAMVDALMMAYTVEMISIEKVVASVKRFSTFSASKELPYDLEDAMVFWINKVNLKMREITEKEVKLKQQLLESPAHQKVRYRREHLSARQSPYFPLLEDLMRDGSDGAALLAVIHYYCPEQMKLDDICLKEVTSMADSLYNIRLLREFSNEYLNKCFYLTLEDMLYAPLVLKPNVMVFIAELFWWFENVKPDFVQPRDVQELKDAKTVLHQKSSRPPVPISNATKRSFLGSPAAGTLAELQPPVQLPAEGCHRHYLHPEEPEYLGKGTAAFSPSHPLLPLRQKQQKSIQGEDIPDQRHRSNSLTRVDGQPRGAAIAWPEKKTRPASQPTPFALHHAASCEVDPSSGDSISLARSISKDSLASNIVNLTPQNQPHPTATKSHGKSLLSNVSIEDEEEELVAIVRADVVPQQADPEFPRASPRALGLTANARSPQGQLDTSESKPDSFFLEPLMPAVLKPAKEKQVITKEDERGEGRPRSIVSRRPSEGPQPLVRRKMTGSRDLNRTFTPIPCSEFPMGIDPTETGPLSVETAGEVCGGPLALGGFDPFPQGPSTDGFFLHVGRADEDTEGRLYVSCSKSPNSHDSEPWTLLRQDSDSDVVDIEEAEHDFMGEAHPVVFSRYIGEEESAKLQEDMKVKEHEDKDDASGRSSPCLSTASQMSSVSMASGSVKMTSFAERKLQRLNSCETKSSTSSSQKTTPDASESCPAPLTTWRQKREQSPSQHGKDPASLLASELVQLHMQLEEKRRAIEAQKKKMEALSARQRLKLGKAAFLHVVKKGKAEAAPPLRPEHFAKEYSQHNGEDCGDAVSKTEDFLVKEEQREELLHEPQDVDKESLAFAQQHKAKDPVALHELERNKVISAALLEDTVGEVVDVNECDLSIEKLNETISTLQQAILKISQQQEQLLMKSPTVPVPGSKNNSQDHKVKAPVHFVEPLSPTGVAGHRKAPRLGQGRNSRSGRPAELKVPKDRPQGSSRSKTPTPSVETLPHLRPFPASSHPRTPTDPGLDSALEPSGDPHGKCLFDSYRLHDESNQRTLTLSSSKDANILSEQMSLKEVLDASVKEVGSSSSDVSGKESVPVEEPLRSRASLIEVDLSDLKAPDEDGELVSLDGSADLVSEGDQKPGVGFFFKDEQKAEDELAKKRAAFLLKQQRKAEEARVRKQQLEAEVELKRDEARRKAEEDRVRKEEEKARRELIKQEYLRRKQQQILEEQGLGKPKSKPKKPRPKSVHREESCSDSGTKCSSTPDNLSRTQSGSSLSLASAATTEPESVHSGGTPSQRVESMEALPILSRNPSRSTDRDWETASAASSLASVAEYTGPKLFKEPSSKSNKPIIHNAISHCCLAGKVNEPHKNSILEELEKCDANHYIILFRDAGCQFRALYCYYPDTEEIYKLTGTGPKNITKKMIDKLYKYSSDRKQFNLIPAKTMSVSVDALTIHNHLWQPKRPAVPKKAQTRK
UniProt Q6NUQ1: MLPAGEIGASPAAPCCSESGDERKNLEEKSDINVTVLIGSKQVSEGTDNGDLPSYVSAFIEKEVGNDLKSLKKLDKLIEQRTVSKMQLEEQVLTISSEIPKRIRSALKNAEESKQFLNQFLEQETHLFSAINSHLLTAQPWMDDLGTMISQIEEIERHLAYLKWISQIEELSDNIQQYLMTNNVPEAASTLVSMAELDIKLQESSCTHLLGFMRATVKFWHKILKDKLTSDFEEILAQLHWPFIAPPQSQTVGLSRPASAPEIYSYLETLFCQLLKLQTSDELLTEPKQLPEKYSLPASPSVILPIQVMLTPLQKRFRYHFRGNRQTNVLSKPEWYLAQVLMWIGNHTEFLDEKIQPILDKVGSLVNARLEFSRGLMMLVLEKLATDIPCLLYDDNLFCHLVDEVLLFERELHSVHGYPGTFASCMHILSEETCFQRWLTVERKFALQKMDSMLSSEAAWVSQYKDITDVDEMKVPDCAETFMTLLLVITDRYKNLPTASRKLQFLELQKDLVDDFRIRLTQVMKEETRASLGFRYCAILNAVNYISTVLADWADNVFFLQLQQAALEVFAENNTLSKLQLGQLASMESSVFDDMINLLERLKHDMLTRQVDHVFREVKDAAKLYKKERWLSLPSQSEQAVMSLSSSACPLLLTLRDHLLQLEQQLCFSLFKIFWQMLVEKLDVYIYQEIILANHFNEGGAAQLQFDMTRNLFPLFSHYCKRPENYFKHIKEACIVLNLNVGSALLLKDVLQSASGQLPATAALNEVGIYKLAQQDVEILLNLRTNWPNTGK
UniProt Q9Y426: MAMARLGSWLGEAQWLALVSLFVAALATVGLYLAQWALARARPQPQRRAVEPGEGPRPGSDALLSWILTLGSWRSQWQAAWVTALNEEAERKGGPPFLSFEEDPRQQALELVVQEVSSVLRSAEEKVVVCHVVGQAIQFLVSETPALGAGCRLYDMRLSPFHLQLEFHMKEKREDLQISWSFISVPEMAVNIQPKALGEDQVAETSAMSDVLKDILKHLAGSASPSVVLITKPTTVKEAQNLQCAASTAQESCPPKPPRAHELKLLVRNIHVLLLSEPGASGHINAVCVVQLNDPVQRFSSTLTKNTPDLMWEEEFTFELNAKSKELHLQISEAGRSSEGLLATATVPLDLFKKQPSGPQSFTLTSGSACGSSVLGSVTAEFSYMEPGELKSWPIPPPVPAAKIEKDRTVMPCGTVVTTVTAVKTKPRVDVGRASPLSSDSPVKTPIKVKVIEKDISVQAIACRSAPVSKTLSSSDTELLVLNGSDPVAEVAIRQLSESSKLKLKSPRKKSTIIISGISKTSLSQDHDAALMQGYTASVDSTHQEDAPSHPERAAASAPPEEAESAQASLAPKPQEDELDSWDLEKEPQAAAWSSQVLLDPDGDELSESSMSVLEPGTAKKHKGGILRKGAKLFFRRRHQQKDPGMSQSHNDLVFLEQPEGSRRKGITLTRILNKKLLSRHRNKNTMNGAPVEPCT
UniProt A2RRP1: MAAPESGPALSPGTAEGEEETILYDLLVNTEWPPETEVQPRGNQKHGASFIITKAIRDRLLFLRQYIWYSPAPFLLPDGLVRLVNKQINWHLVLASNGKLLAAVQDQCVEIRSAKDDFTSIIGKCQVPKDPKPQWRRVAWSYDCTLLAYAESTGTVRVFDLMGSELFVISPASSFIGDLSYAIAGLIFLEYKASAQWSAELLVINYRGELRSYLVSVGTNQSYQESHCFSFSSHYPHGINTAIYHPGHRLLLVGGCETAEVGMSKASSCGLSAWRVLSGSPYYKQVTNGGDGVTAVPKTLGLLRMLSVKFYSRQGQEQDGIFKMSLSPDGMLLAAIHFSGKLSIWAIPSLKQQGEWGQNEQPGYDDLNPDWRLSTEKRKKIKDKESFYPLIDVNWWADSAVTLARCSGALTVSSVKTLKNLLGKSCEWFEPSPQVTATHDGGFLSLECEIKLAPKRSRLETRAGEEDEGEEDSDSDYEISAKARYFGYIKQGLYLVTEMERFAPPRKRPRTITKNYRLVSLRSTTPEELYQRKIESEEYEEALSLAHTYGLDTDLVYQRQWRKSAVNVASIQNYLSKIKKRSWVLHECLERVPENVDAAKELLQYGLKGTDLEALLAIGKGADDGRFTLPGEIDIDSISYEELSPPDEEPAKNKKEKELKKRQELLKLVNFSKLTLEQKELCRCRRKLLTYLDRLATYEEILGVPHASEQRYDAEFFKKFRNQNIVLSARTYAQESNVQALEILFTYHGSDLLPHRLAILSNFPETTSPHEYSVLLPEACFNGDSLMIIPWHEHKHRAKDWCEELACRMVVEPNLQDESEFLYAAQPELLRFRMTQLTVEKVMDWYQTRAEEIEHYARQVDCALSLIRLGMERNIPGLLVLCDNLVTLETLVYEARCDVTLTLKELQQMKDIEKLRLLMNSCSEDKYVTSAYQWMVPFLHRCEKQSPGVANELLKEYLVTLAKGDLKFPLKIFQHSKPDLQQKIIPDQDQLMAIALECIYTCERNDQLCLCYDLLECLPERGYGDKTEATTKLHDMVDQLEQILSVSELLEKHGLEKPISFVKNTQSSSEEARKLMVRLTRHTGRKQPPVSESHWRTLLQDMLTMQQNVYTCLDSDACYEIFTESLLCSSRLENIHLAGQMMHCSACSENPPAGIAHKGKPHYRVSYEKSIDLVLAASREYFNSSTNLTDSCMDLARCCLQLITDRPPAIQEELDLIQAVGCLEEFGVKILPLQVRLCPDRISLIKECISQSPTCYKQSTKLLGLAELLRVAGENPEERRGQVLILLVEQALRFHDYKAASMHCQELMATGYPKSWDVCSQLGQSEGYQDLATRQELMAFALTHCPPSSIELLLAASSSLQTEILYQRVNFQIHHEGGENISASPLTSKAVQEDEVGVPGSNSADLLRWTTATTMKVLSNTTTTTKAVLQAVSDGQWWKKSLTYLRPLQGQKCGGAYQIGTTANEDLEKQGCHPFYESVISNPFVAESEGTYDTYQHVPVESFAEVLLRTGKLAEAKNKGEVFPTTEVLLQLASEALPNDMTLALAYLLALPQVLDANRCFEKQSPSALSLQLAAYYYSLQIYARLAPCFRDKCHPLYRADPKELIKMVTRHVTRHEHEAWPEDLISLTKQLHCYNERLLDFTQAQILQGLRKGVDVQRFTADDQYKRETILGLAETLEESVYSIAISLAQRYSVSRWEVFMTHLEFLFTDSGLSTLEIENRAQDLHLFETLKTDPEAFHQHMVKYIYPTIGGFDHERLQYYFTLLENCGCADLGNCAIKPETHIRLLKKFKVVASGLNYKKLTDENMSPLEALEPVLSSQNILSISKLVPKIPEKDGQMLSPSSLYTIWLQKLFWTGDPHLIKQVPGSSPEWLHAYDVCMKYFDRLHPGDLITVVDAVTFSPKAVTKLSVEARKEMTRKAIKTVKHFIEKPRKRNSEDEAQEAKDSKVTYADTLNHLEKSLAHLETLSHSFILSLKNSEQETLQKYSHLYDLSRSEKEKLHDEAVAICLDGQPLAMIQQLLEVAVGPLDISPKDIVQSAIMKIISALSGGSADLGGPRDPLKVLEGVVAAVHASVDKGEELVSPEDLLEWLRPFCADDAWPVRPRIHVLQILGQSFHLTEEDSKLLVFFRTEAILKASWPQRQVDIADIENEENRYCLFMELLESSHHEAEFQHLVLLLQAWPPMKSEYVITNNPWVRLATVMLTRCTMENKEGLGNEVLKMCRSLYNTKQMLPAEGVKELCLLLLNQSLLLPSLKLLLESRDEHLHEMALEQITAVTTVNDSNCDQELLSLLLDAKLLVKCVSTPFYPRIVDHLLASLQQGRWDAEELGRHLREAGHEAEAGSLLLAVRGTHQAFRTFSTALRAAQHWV

[2] = biological target: BirA*-RAB18 (UniProt Q9NP72); assay: proximity labelling

| Substance | binding [1] | binding [2] |
| --- | --- | --- |
| BICD2 (from UniProt Q8TD16 1-824) |  | binds |
| CAMSAP1 (from UniProt Q5T5Y3 1-1602) |  | binds |
| RINT1 (from UniProt Q6NUQ1 1-792) |  | binds |
| C2CD2 (from UniProt Q9Y426 1-696) |  | binds |
| NBAS (from UniProt A2RRP1 1-2371) |  | binds |

Results, then the substance that gave them:

| binding [1] | binding [2] | Substance |
| --- | --- | --- |
| binds |  | RAB18 (endogenous) (from UniProt Q9NP72 1-206) |
|  | binds | INPP5B (endogenous) (from UniProt P32019 1-993) |

— doi:10.1101/871517
